In PMC11963761, “Structural basis for control of integrative and conjugative element excision and transfer by the oligomeric winged helix–turn–helix protein RdfS”:
The exact form of at least one protein or probe is not confirmed. For some assays here: No signal at the amounts used counts as a negative. At least one verdict rests on a figure or table, not on a statement of the authors. For some assays here: Tags and fusion partners may be left off the protein sequences shown. For some assays here: The comparison behind a weaker result is the experiment's own reference, which may not be listed here. For some assays here: Whether high values mean tight binding is not given here for every scale.

Experiments:
Test in all cases: SPR
[1] = molecular target: T1, 6H-RdfS (Mesorhizobium japonicum R7A (ICEMlSymR7A)) (UniProt Q7AL96); conditions: SPR: ReDCaT on Biacore T200, 1 uM protein, temperature not given, recombinant protein, residues 1-89, protein details: N-terminal 6xHis, label: 5' biotin on …
T1 sequence (looked up): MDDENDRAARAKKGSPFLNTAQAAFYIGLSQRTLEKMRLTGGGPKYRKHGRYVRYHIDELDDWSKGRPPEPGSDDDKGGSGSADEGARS

[2] = molecular target: T2, RdfS (Mesorhizobium japonicum R7A (ICEMlSymR7A)) (UniProt Q7AL96); conditions: SPR: ReDCaT on Biacore T200, 1 uM protein, temperature not given, recombinant protein, residues 1-89, protein details: N-terminal 6xHis removed after purification, label: 5' biotin on S36
T2 sequence (looked up): T1 sequence (looked up)

[3] = test system: 6HRdfS1271 (Mesorhizobium ciceri WSM1271 (ICEMcSym1271)); conditions: SPR: ReDCaT on Biacore T200, 1 uM protein, temperature not given, recombinant protein, protein details: N-terminal 6xHis, label: 5' biotin on S36
[4] = 1 uM, nonspecific increase by tag

## GCAACTAGCTGAAATCCTTACTGATTTCGGCGCGCAAAGC / GCTTTGCGCGCCGAAATCAGTAAGGATTTCAGCTAGTTGCCCTACCCTACGTCCTCCTGC / GCAGGAGGACGTAGGGTAGG [attP_6]
[1]; [4]
  binding result: binds more weakly
[2]; 1 uM
  binding result: no binding

## CGCGCAAAGCGCGGATGGTCGGGTTTTGTGGAATTTCGGC / GCCGAAATTCCACAAAACCCGACCATCCGCGCTTTGCGCGCCTACCCTACGTCCTCCTGC / GCAGGAGGACGTAGGGTAGG [attP_7]
[1]; [4]
  binding result: binds more weakly
[2]; 1 uM
  binding result: no binding

## GACTCTTCGCCCGTCCCCACGACGACCTCGTTCGCCGATC / GATCGGCGAACGAGGTCGTCGTGGGGACGGGCGAAGAGTCCCTACCCTACGTCCTCCTGC / GCAGGAGGACGTAGGGTAGG [PrdfS_4]
[3]; 1 uM protein
  binding result: binds
[2]; 1 uM protein, 52% of theoretical Rmax
  binding signal (% of attP 8 response): 43

## TGTTGGAGGCCAAACATTTGTAAACAAAGTCAAATTTGTT / AACAAATTTGACTTTGTTTACAAATGTTTGGCCTCCAACACCTACCCTACGTCCTCCTGC / GCAGGAGGACGTAGGGTAGG [attP_2]
[1]; [4]
  binding result: binds more weakly
[2]; 1 uM, negative control
  binding result: no binding

## ATACCAACTCGCCTGGATTGCCAGGACCGAGGCAGCGTCC / GGACGCTGCCTCGGTCCTGGCAATCCAGGCGAGTTGGTATCCTACCCTACGTCCTCCTGC / GCAGGAGGACGTAGGGTAGG [PrdfM_7]
[3]; only very weak for any
  binding result: binds more weakly

## GGGGGCTGGTATTTTCGGTGGTATTGGAGATGCTGATGGT / ACCATCAGCATCTCCAATACCACCGAAAATACCAGCCCCCCCTACCCTACGTCCTCCTGC / GCAGGAGGACGTAGGGTAGG [attP_9]
[1]; [4]
  binding result: binds more weakly
[2]; 1 uM
  binding result: no binding

## GAGGGTTTTCTTATTTTAGCCCAACACGATCTCCTCGCTA / TAGCGAGGAGATCGTGTTGGGCTAAAATAAGAAAACCCTCCCTACCCTACGTCCTCCTGC / GCAGGAGGACGTAGGGTAGG [PrdfM_4]
[3]; only very weak for any
  binding result: binds more weakly

## GTTGCTGCCAATTTACGCCGAACGAACTAGTCAGGCCGGT / ACCGGCCTGACTAGTTCGTTCGGCGTAAATTGGCAGCAACCCTACCCTACGTCCTCCTGC / GCAGGAGGACGTAGGGTAGG [PrdfM_2]
[3]; only very weak for any
  binding result: binds more weakly

## CTGCCGGAATGCACCCCGTTCACACGTTGCTGCCAATTTA / TAAATTGGCAGCAACGTGTGAACGGGGTGCATTCCGGCAGCCTACCCTACGTCCTCCTGC / GCAGGAGGACGTAGGGTAGG [PrdfM_1]
[3]; only very weak for any
  binding result: binds more weakly

## CAAATTTGTTTCTCTTGGATTCCGCCTCTGGGCACCATCC / GGATGGTGCCCAGAGGCGGAATCCAAGAGAAACAAATTTGCCTACCCTACGTCCTCCTGC / GCAGGAGGACGTAGGGTAGG [attP_3]
[1]; [4]
  binding result: binds more weakly
[2]; 1 uM
  binding result: no binding

## ACTAGGATGTGGCTTTTGCGCTTCGATACCAACTCGCCTG / CAGGCGAGTTGGTATCGAAGCGCAAAAGCCACATCCTAGTCCTACCCTACGTCCTCCTGC / GCAGGAGGACGTAGGGTAGG [PrdfM_6]
[3]; only very weak for any
  binding result: binds more weakly

## TTTCGCCGAAGCCTCTACGCTTCTGTCTCGGCAACTAGCT / AGCTAGTTGCCGAGACAGAAGCGTAGAGGCTTCGGCGAAACCTACCCTACGTCCTCCTGC / GCAGGAGGACGTAGGGTAGG [attP_5]
[1]; [4]
  binding result: binds more weakly
[2]; 1 uM
  binding result: no binding

## GTTGGTACTTCTGTTGGCACGCAGGGACGATGTTGGAGGC / GCCTCCAACATCGTCCCTGCGTGCCAACAGAAGTACCAACCCTACCCTACGTCCTCCTGC / GCAGGAGGACGTAGGGTAGG [attP_1]
[1]; [4]
  binding result: binds more weakly
[2]; 1 uM
  binding result: no binding

## GAATTTCGGCGCAGTTGGTCCAACGAGGCGGGGCGCTGGT / ACCAGCGCCCCGCCTCGTTGGACCAACTGCGCCGAAATTCCCTACCCTACGTCCTCCTGC / GCAGGAGGACGTAGGGTAGG [attP_8_M34]
[2]; 1 uM
  binding result: binds

## GAATTACGGCGCAGTTGGTCCAACGAGGCGGGGGGCTGGT / ACCAGCCCCCCGCCTCGTTGGACCAACTGCGCCGTAATTCCCTACCCTACGTCCTCCTGC / GCAGGAGGACGTAGGGTAGG [attP_8_M06]
[2]; 1 uM
  binding result: binds

## GAATTTCGGCGCAGATGGTCCAACGAGGCGGGGGGCTGGT / ACCAGCCCCCCGCCTCGTTGGACCATCTGCGCCGAAATTCCCTACCCTACGTCCTCCTGC / GCAGGAGGACGTAGGGTAGG [attP_8_M15]
[2]; 1 uM
  binding result: binds

## GAATTTCGGCGCAGTTGGTC / GACCAACTGCGCCGAAATTCCCTACCCTACGTCCTCCTGC / GCAGGAGGACGTAGGGTAGG [attP8_1 20-mer]
[2]; 1 uM
  binding signal (% of attP 8 Rmax): < 45

## ATCCTCGCGGTTGCTTGTCCGAAGCGAAACGAGGACCATC / GATGGTCCTCGTTTCGCTTCGGACAAGCAACCGCGAGGATCCTACCCTACGTCCTCCTGC / GCAGGAGGACGTAGGGTAGG [PrdfS_6 (printed as second PrdfS_5)]
[2]; 1 uM
  binding result: no binding

## GAATTTCGGCGCAGTTGGTCCAACGAGGCGGGGGCCTGGT / ACCAGGCCCCCGCCTCGTTGGACCAACTGCGCCGAAATTCCCTACCCTACGTCCTCCTGC / GCAGGAGGACGTAGGGTAGG [attP_8_M35]
[2]; 1 uM
  binding result: binds

## ACGATCTCCTCGCTACGAATTGGCAACTAGGATGTGGCTT / AAGCCACATCCTAGTTGCCAATTCGTAGCGAGGAGATCGTCCTACCCTACGTCCTCCTGC / GCAGGAGGACGTAGGGTAGG [PrdfM_5]
[3]; only very weak for any
  binding result: binds more weakly

## GAATTTCGGCGCAGTTGGTCCAACGAGGCGGGGGGGTGGT / ACCACCCCCCCGCCTCGTTGGACCAACTGCGCCGAAATTCCCTACCCTACGTCCTCCTGC / GCAGGAGGACGTAGGGTAGG [attP_8_M36]
[2]; 1 uM
  binding result: binds

## GGCACCATCCCCTCTTCTCCCGACAGTCTCTTTCGCCGAA / TTCGGCGAAAGAGACTGTCGGGAGAAGAGGGGATGGTGCCCCTACCCTACGTCCTCCTGC / GCAGGAGGACGTAGGGTAGG [attP_4]
[1]; [4]
  binding result: binds more weakly
[2]; 1 uM
  binding result: no binding

## TTCGCCCGTCCCCACGACGA / TCGTCGTGGGGACGGGCGAACCTACCCTACGTCCTCCTGC / GCAGGAGGACGTAGGGTAGG [PrdfS4_2 20-mer]
[2]; 1 uM
  binding result: no binding

## CAATTTCGGCGCAGTTGGTCCAACGAGGCGGGGGGCTGGT / ACCAGCCCCCCGCCTCGTTGGACCAACTGCGCCGAAATTGCCTACCCTACGTCCTCCTGC / GCAGGAGGACGTAGGGTAGG [attP_8_M01]
[2]; 1 uM
  binding result: binds

## CAACGAGGCGGGGGGCTGGT / ACCAGCCCCCCGCCTCGTTGCCTACCCTACGTCCTCCTGC / GCAGGAGGACGTAGGGTAGG [attP8_5 20-mer]
[2]; 1 uM
  binding signal (% of attP 8 Rmax): < 45

## ACTAGTCAGGCCGGTTCCGCTTGACGAGGGTTTTCTTATT / AATAAGAAAACCCTCGTCAAGCGGAACCGGCCTGACTAGTCCTACCCTACGTCCTCCTGC / GCAGGAGGACGTAGGGTAGG [PrdfM_3]
[3]; only very weak for any
  binding result: binds more weakly

## GAATTTCGGCGCAGTAGGTCCAACGAGGCGGGGGGCTGGT / ACCAGCCCCCCGCCTCGTTGGACCTACTGCGCCGAAATTCCCTACCCTACGTCCTCCTGC / GCAGGAGGACGTAGGGTAGG [attP_8_M16]
[2]; 1 uM
  binding result: binds

## CCCACGACGACCTCGTTCGC / GCGAACGAGGTCGTCGTGGGCCTACCCTACGTCCTCCTGC / GCAGGAGGACGTAGGGTAGG [PrdfS4_4 20-mer]
[2]; 1 uM
  binding result: no binding

## GAATTTCGGCGCAGTTGGTCCAACGAGGCGGGCGGCTGGT / ACCAGCCGCCCGCCTCGTTGGACCAACTGCGCCGAAATTCCCTACCCTACGTCCTCCTGC / GCAGGAGGACGTAGGGTAGG [attP_8_M33]
[2]; 1 uM
  binding result: binds

## GAATTTCGGCGCAGTTGGTCCAACGAGGCGGGGGGCTGGT / ACCAGCCCCCCGCCTCGTTGGACCAACTGCGCCGAAATTCCCTACCCTACGTCCTCCTGC / GCAGGAGGACGTAGGGTAGG [attP_8]
[1]; 1 uM protein, response as untagged
  binding result: binds
[3]; 1 uM protein
  binding result: binds
[2]; 1 uM protein
  binding result: binds
